Data from the supplement of paper PMC8728848.
Some of the results follow.

Tests used:
Experiment in all cases: glycan array binding signal (z-score within array); higher = stronger binding
Details in all cases: glycan notation: IUPAC condensed, linker removed
Kdn(a2-3)Gal(b1-4)Glc = target: Kdn(a2-3)Gal(b1-4)Glc
How it was run: (§1)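 Glycan array data were curated from 3228 arrays in the Consortium for Functional Glycomics database and kept only where the protein sequence was available. Glycan names were converted to IUPAC-condensed notation, and columns mapping to the same glycan were averaged. The binding signal is a within-array Z-score, averaged across arrays of the same protein sequence at different concentrations or buffers and across linkers. Negative Z-scores can be read as non-binding.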

Kdn(a2-3)Gal(b1-4)GlcNAc = target: Kdn(a2-3)Gal(b1-4)GlcNAc
How it was run: as §1

[1] = target: Kdn(a2-3)Gal(b1-4)[Fuc(a1-3)]GlcNAc
How it was run: as §1

Kdn(a2-6)Gal(b1-4)GlcNAc = target: Kdn(a2-6)Gal(b1-4)GlcNAc
How it was run: as §1

[2] = target: Man(a1-2)Man(a1-2)Man(a1-3)Man
How it was run: as §1

[3] = target: Man(a1-2)Man(a1-2)Man(a1-6)[Man(a1-3)]Man
How it was run: as §1

Man(a1-2)Man(a1-3)Man = target: Man(a1-2)Man(a1-3)Man
How it was run: as §1

[4] = target: Man(a1-2)Man(a1-3)[Man(a1-2)Man(a1-6)]Man
How it was run: as §1

[5] = target: Man(a1-2)Man(a1-3)[Man(a1-2)Man(a1-6)]Man(a1-6)[Man(a1-2)Man(a1-2)Man(a1-3)]Man
How it was run: as §1

[6] = target: Man(a1-2)Man(a1-3)[Man(a1-2)Man(a1-6)]Man(a1-6)[Man(a1-2)Man(a1-2)Man(a1-3)]Man(b1-4)GlcNAc(b1-4)GlcNAc
How it was run: as §1

[7] = target: Man(a1-2)Man(a1-3)[Man(a1-6)]Man(a1-6)[Man(a1-2)Man(a1-3)]Man(b1-4)GlcNAc(b1-4)GlcNAc
How it was run: as §1

[8] = target: Man(a1-2)Man(a1-6)[Man(a1-3)]Man(a1-6)[Man(a1-2)Man(a1-2)Man(a1-3)]Man
How it was run: as §1

[9] = target: Man(a1-2)Man(a1-6)[Man(a1-3)]Man(a1-6)[Man(a1-2)Man(a1-2)Man(a1-3)]Man(b1-4)GlcNAc(b1-4)GlcNAc
How it was run: as §1

Man(a1-3)[Man(a1-6)]Man = target: Man(a1-3)[Man(a1-6)]Man
How it was run: as §1

[10] = target: Man(a1-3)[Man(a1-6)]Man(a1-6)[Man(a1-2)Man(a1-3)]Man(b1-4)GlcNAc(b1-4)GlcNAc
How it was run: as §1

[11] = target: Man(a1-3)[Man(a1-6)]Man(a1-6)[Man(a1-3)]Man
How it was run: as §1

[12] = target: Man(a1-3)[Man(a1-6)]Man(a1-6)[Man(a1-3)]Man(b1-4)GlcNAc(b1-4)GlcNAc
How it was run: as §1

[13] = target: Man(a1-3)[Man(a1-6)]Man(b1-4)GlcNAc(b1-4)GlcNAc
How it was run: as §1

[14] = target: Man(a1-3)[Man(a1-6)]Man(b1-4)GlcNAc(b1-4)[Fuc(a1-6)]GlcNAc
How it was run: as §1

Man(a1-6)Man = target: Man(a1-6)Man
How it was run: as §1

Man(b1-4)GlcNAc = target: Man(b1-4)GlcNAc
How it was run: as §1

MurNAc(b1-4)GlcNAc = target: MurNAc(b1-4)GlcNAc
How it was run: as §1

Neu5Ac(a2-3)Gal = target: Neu5Ac(a2-3)Gal
How it was run: as §1

[15] = target: Neu5Ac(a2-3)Gal(b1-3)GalNAc
How it was run: as §1

[16] = target: Neu5Ac(a2-3)Gal(b1-3)GalNAc(b1-3)Gal(a1-4)Gal(b1-4)Glc
How it was run: as §1

[17] = target: Neu5Ac(a2-3)Gal(b1-3)GalNAc(b1-4)[Neu5Ac(a2-3)]Gal(b1-4)Glc
How it was run: as §1

[18] = target: Neu5Ac(a2-3)Gal(b1-3)GalNAc(b1-4)[Neu5Ac(a2-8)Neu5Ac(a2-3)]Gal(b1-4)Glc
How it was run: as §1

[19] = target: Neu5Ac(a2-3)Gal(b1-3)GalNAc6S
How it was run: as §1

[20] = target: Neu5Ac(a2-3)Gal(b1-3)GlcNAc
How it was run: as §1

[21] = target: Neu5Ac(a2-3)Gal(b1-3)GlcNAc(b1-2)Man
How it was run: as §1

[22] = target: Neu5Ac(a2-3)Gal(b1-3)GlcNAc(b1-2)Man(a1-3)[GlcNAc(b1-4)][Neu5Ac(a2-3)Gal(b1-3)GlcNAc(b1-2)Man(a1-6)]Man(b1-4)GlcNAc(b1-4)GlcNAc
How it was run: as §1

[23] = target: Neu5Ac(a2-3)Gal(b1-3)GlcNAc(b1-2)Man(a1-3)[Neu5Ac(a2-3)Gal(b1-3)GlcNAc(b1-2)Man(a1-6)]Man(b1-4)GlcNAc(b1-4)GlcNAc
How it was run: as §1

[24] = target: Neu5Ac(a2-3)Gal(b1-3)GlcNAc(b1-3)Gal(b1-3)GlcNAc
How it was run: as §1

[25] = target: Neu5Ac(a2-3)Gal(b1-3)GlcNAc(b1-3)Gal(b1-4)GlcNAc
How it was run: as §1

[26] = target: Neu5Ac(a2-3)Gal(b1-3)GlcNAc(b1-3)GalNAc
How it was run: as §1

[27] = target: Neu5Ac(a2-3)Gal(b1-3)GlcNAc(b1-4)Gal(b1-4)Glc
How it was run: as §1

[28] = target: Neu5Ac(a2-3)Gal(b1-3)GlcNAc(b1-6)GalNAc
How it was run: as §1

[29] = target: Neu5Ac(a2-3)Gal(b1-3)GlcNAc6S
How it was run: as §1

B1: SP15308F-bth-333-19-333 (Bacteroides thetaiotaomicron) (protein)
chain: SCNNEWESEQYVQMVSFKAPVNAQGVTPIYIRYKPEGKVTYQLPLIVSGSTMNSKDLNVHVGLDLDTLDVLNVEHFGSRKELFFKPLENKYYEFPETVQIPAGECTSLLPIDFALKDLDQVDKWVLPLAIQSNDPSHNYQANPRKFYRRAMLRISPFNDYSGQYSATAYKVYFKGNEKEAIVPEYHTSYVIDDKTIFFYAGLIDIDRLDRKYYKIKFEFTEEKIDLQTRKLKISSDNEDINLVVKGQPSYTVEEEMDATRPYLKHIYVTINNLEYEFTDYTSVPGYPLEYVVKGSLTMERKINTQIPDEDQAIEW
glycan array binding signal (z-score) (Kdn(a2-3)Gal(b1-4)Glc): -0.56
glycan array binding signal (z-score) (Kdn(a2-3)Gal(b1-4)GlcNAc): 0.16
glycan array binding signal (z-score) [1]: -0.982
glycan array binding signal (z-score) (Kdn(a2-6)Gal(b1-4)GlcNAc): 0.617
glycan array binding signal (z-score) [2]: 0.203
glycan array binding signal (z-score) [3]: -0.065
glycan array binding signal (z-score) (Man(a1-2)Man(a1-3)Man): -0.456
glycan array binding signal (z-score) [4]: 1.07
glycan array binding signal (z-score) [5]: -1.01
glycan array binding signal (z-score) [6]: -0.143
glycan array binding signal (z-score) [7]: -1.62
glycan array binding signal (z-score) [8]: -0.134
glycan array binding signal (z-score) [9]: 1.21
glycan array binding signal (z-score) (Man(a1-3)[Man(a1-6)]Man): -0.694
glycan array binding signal (z-score) [10]: -0.363
glycan array binding signal (z-score) [11]: -0.462
glycan array binding signal (z-score) [12]: -0.336
glycan array binding signal (z-score) [13]: -1.23
glycan array binding signal (z-score) [14]: -0.312
glycan array binding signal (z-score) (Man(a1-6)Man): -0.195
glycan array binding signal (z-score) (Man(b1-4)GlcNAc): 0.769
glycan array binding signal (z-score) (MurNAc(b1-4)GlcNAc): 0.696
glycan array binding signal (z-score) (Neu5Ac(a2-3)Gal): 0.024
glycan array binding signal (z-score) [15]: 1.83
glycan array binding signal (z-score) [16]: -0.692
glycan array binding signal (z-score) [17]: -0.044
glycan array binding signal (z-score) [18]: 0.059
glycan array binding signal (z-score) [19]: -0.114
glycan array binding signal (z-score) [20]: -0.28
glycan array binding signal (z-score) [21]: 1.15
glycan array binding signal (z-score) [22]: -0.819
glycan array binding signal (z-score) [23]: -1.03
glycan array binding signal (z-score) [24]: -0.7
glycan array binding signal (z-score) [25]: -0.006
glycan array binding signal (z-score) [26]: 0.286
glycan array binding signal (z-score) [27]: -0.657
glycan array binding signal (z-score) [28]: -0.449
glycan array binding signal (z-score) [29]: 0.742
